Laboratory results from PubChem BioAssay AID270 (DTP/NCI, 2004).
The list is a part of this screen's results and no random one: it is rich in T/C values a quarter to a half above the control, in often repeated tests (any T/C) and in doses without a T/C. Other doses and runs of a compound stand elsewhere. T/C gives the treated animals as a percentage of the vehicle group. Schedule codes are those of the source, taken here to give the interval after Q, in days (D) or hours (H), and the number of doses after X. Some entries hold several experiments; the results are listed from low to high. Some T/C values carry the count of animals alive at the toxicity check (mostly the fifth day); without a count, all were alive then. Some entries give survivors of the animals treated and no T/C: the source files T/C as zero there, which appears to mark a toxic dose or a test without result, not a measured value. Some doses without a T/C left all or most animals alive at the check, yet need not have been tolerated: the source hardly ever lists a survival T/C far under the control, and the zero likely stands for such cases as well. Survivors were counted at the toxicity check, usually on the fifth day, unless a day is given; later deaths do not show. For survival time, the PubChem record calls one and a half times the control and up active, and a quarter to a half above the control has no call in these data; cut-offs in other NCI protocols can differ.

System: BDF1 mice, s.c. Lewis lung carcinoma, T/C %
Test: NCI In Vivo Anticancer Drug Screen. Data for tumor model Lewis Lung Carcinoma (subcutaneous) in B6D2F1 (BDF1) mice
Outline: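 Readout: survival or tumor size, expressed as treated (T) over vehicle control (C). Transplantable tumor implanted in mice; compound given to the treated group.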

[1] = T/C endpoint: median survival time, dose: 64.0 mg/kg/injection, schedule: Q01DX001 (ip), vehicle: saline + alcohol, higher T/C = longer survival
[2] = T/C endpoint: median survival time, dose: 128.0 mg/kg/injection, schedule: Q01DX001 (ip), vehicle: saline + alcohol, higher T/C = longer survival
[3] = T/C endpoint: median survival time, dose: 256.0 mg/kg/injection, schedule: Q01DX001 (ip), vehicle: saline + alcohol, higher T/C = longer survival

## CC1CCC(NC(=O)N(CCCl)N=O)CC1 (stereo not drawn)
T/C endpoint: median survival time, dose: 27.0 mg/kg/injection, schedule: Q07DX002 (ip), vehicle: saline with Tween-80, evaluated on day 101, higher T/C = longer survival
  T/C: 163 % of control
T/C endpoint: median survival time, dose: 27.0 mg/kg/injection, schedule: Q07DX002 (ip), vehicle: saline with Tween-80, evaluated on day 119, higher T/C = longer survival
  T/C: 198 % of control
T/C endpoint: median survival time, dose: 30.0 mg/kg/injection, schedule: Q01DX001 (ip), vehicle: Klucel (hydroxypropylcellulose) (HPC), higher T/C = longer survival
  T/C: 131 % of control
T/C endpoint: median survival time, dose: 30.0 mg/kg/injection, schedule: Q01DX001 (ip), vehicle: other, higher T/C = longer survival
  T/C: 148 % of control
T/C endpoint: median survival time, dose: 32.0 mg/kg/injection, schedule: Q01DX009 (ip), vehicle: saline with Tween-80, higher T/C = longer survival
  survivor count: 10 of 10
T/C endpoint: median survival time, dose: 33.0 mg/kg/injection, schedule: Q07DX002 (ip), vehicle: saline with Tween-80, evaluated on day 80, higher T/C = longer survival
  T/C: 262 % of control
T/C endpoint: median survival time, dose: 33.0 mg/kg/injection, schedule: Q07DX002 (ip), vehicle: saline with Tween-80, evaluated on day 84, higher T/C = longer survival
  T/C: 381 % of control
T/C endpoint: median survival time, dose: 33.0 mg/kg/injection, schedule: Q07DX002 (ip), vehicle: saline with Tween-80, evaluated on day 101, higher T/C = longer survival
  T/C: 413 % of control
T/C endpoint: median survival time, dose: 33.0 mg/kg/injection, schedule: Q07DX002 (ip), vehicle: saline with Tween-80, evaluated on day 119, higher T/C = longer survival
  T/C: 160 % of control
T/C endpoint: median survival time, dose: 36.0 mg/kg/injection, schedule: Q01DX001 (ip), vehicle: Klucel (hydroxypropylcellulose) (HPC), higher T/C = longer survival
  T/C: 130 % of control
T/C endpoint: median survival time, dose: 36.0 mg/kg/injection, schedule: Q01DX001 (ip), vehicle: gum acacia, evaluated on day 15, higher T/C = longer survival
  T/C: 257 % of control
T/C endpoint: median survival time, dose: 36.0 mg/kg/injection, schedule: Q01DX001 (ip), vehicle: gum acacia, evaluated on day 43, higher T/C = longer survival
  T/C: 179 % of control
T/C endpoint: median survival time, dose: 36.0 mg/kg/injection, schedule: Q01DX001 (ip), vehicle: gum acacia, evaluated on day 46, higher T/C = longer survival
  T/C: 139 % of control
T/C endpoint: median survival time, dose: 36.0 mg/kg/injection, schedule: Q01DX001 (ip), vehicle: gum acacia, evaluated on day 77, higher T/C = longer survival
  T/C: 353 % of control
T/C endpoint: median survival time, dose: 36.0 mg/kg/injection, schedule: Q01DX001 (ip), vehicle: gum acacia, evaluated on day 136, higher T/C = longer survival
  T/C: 138 % of control
T/C endpoint: median survival time, dose: 36.0 mg/kg/injection, schedule: Q01DX001 (ip), vehicle: saline with Tween-80, evaluated on day 12, higher T/C = longer survival
  T/C: 152 and 157 % of control
T/C endpoint: median survival time, dose: 36.0 mg/kg/injection, schedule: Q01DX001 (ip), vehicle: saline with Tween-80, evaluated on day 52, higher T/C = longer survival
  T/C: 176 % of control
T/C endpoint: median survival time, dose: 36.0 mg/kg/injection, schedule: Q01DX001 (ip), vehicle: saline with Tween-80, evaluated on day 54, higher T/C = longer survival
  T/C: 165 % of control
T/C endpoint: median survival time, dose: 36.0 mg/kg/injection, schedule: Q01DX001 (ip), vehicle: saline with Tween-80, evaluated on day 90, higher T/C = longer survival
  T/C: 189 % of control
T/C endpoint: median survival time, dose: 36.0 mg/kg/injection, schedule: Q01DX001 (ip), vehicle: saline with Tween-80, evaluated on day 92, higher T/C = longer survival
  T/C: 95 % of control
T/C endpoint: median survival time, dose: 36.0 mg/kg/injection, schedule: Q06DX002 (ip), vehicle: gum acacia, higher T/C = longer survival
  survivor count: 10 of 10 on day 15
T/C endpoint: median survival time, dose: 36.0 mg/kg/injection, schedule: Q08DX002 (ip), vehicle: gum acacia, higher T/C = longer survival
  T/C: 145 % of control
T/C endpoint: median survival time, dose: 36.0 mg/kg/injection, schedule: Q11DX002 (ip), vehicle: saline with Tween-80, higher T/C = longer survival
  T/C: 144 % of control
T/C endpoint: median survival time, dose: 36.0 mg/kg/injection, schedule: Q11DX002 (oral), vehicle: saline with Tween-80, higher T/C = longer survival
  T/C: 135 % of control
T/C endpoint: median survival time, dose: 54.0 mg/kg/injection, schedule: Q01DX001 (ip), vehicle: saline with Tween-80, higher T/C = longer survival
  survivor count: 10 of 10 on day 11
T/C endpoint: median survival time, dose: 60.0 mg/kg/injection, schedule: Q01DX001 (ip), vehicle: Klucel (hydroxypropylcellulose) (HPC), higher T/C = longer survival
  survivor count: 10 of 10
[1]
  T/C: 138 % of control
  survivor count: 10 of 10
T/C endpoint: median survival time, dose: 72.0 mg/kg/injection, schedule: Q01DX001 (ip), vehicle: Klucel (hydroxypropylcellulose) (HPC), higher T/C = longer survival
  survivor count: 10 of 10
T/C endpoint: median survival time, dose: 80.0 mg/kg/injection, schedule: Q01DX001 (ip), vehicle: saline with Tween-80, higher T/C = longer survival
  survivor count: 9 of 10 and 10 of 10
T/C endpoint: median survival time, dose: 81.0 mg/kg/injection, schedule: Q01DX001 (ip), vehicle: saline with Tween-80, higher T/C = longer survival
  survivor count: 8 of 10 on day 11
[2]
  T/C: 146 % of control
  survivor count: 10 of 10
T/C endpoint: median survival time, dose: 144.0 mg/kg/injection, schedule: Q01DX001 (ip), vehicle: Klucel (hydroxypropylcellulose) (HPC), higher T/C = longer survival
  survivor count: 10 of 10
T/C endpoint: median survival time, dose: 160.0 mg/kg/injection, schedule: Q01DX001 (ip), vehicle: saline with Tween-80, higher T/C = longer survival
  survivor count: 6 of 10, 8 of 10, 10 of 10 on day 11
T/C endpoint: median survival time, dose: 240.0 mg/kg/injection, schedule: Q01DX001 (ip), vehicle: saline with Tween-80, higher T/C = longer survival
  survivor count: 10 of 10 on day 11
[3]
  T/C: 125 % of control
  survivor count: 10 of 10
T/C endpoint: median survival time, dose: 360.0 mg/kg/injection, schedule: Q01DX001 (ip), vehicle: saline with Tween-80, higher T/C = longer survival
  survivor count: 7 of 10 on day 11
T/C endpoint: median survival time, dose: 540.0 mg/kg/injection, schedule: Q01DX001 (ip), vehicle: saline with Tween-80, higher T/C = longer survival
  survivor count: 1 of 10 on day 11
T/C endpoint: median tumor weight (est.), dose: 12.0 mg/kg/injection, schedule: Q01DX001 (ip), vehicle: gum acacia, higher T/C = larger tumour
  survivor count: 6 of 10 on day 19
T/C endpoint: median tumor weight (est.), dose: 16.0 mg/kg/injection, schedule: Q01DX009 (ip), vehicle: Klucel (hydroxypropylcellulose) (HPC), higher T/C = larger tumour
  survivor count: 1 of 10
T/C endpoint: median tumor weight (est.), dose: 24.0 mg/kg/injection, schedule: Q01DX001 (ip), vehicle: gum acacia, evaluated on day 16, higher T/C = larger tumour
  T/C: 7 and 8 % of control
T/C endpoint: median tumor weight (est.), dose: 24.0 mg/kg/injection, schedule: Q01DX001 (ip), vehicle: gum acacia, evaluated on day 18, higher T/C = larger tumour
  T/C: 2 % of control
T/C endpoint: median tumor weight (est.), dose: 24.0 mg/kg/injection, schedule: Q01DX001 (ip), vehicle: gum acacia, evaluated on day 19, higher T/C = larger tumour
  T/C: 4 % of control [9 of 10 alive on day 19]
T/C endpoint: median tumor weight (est.), dose: 24.0 mg/kg/injection, schedule: Q01DX001 (ip), vehicle: gum acacia, evaluated on day 21, higher T/C = larger tumour
  T/C: 11 % of control
T/C endpoint: median tumor weight (est.), dose: 24.0 mg/kg/injection, schedule: Q01DX001 (ip), vehicle: saline with Tween-80, evaluated on day 18, higher T/C = larger tumour
  T/C: 144 % of control [9 of 10 alive on day 18]
T/C endpoint: median tumor weight (est.), dose: 36.0 mg/kg/injection, schedule: Q01DX001 (ip), vehicle: DMSO, higher T/C = larger tumour
  survivor count: 4 of 10 on day 14
T/C endpoint: median tumor weight (est.), dose: 36.0 mg/kg/injection, schedule: Q01DX001 (ip), vehicle: gum acacia, evaluated on day 16, higher T/C = larger tumour
  T/C: 9 [9 of 10 alive on day 16] and 11 % of control [9 of 10 alive on day 16]
T/C endpoint: median tumor weight (est.), dose: 36.0 mg/kg/injection, schedule: Q01DX001 (ip), vehicle: gum acacia, evaluated on day 18, higher T/C = larger tumour
  T/C: 5 % of control
T/C endpoint: median tumor weight (est.), dose: 36.0 mg/kg/injection, schedule: Q01DX001 (ip), vehicle: gum acacia, evaluated on day 21, higher T/C = larger tumour
  T/C: 3 % of control [9 of 10 alive on day 21]
T/C endpoint: median tumor weight (est.), dose: 54.0 mg/kg/injection, schedule: Q01DX001 (ip), vehicle: DMSO, higher T/C = larger tumour
  survivor count: 1 of 10 on day 14
T/C endpoint: median tumor weight (est.), dose: 54.0 mg/kg/injection, schedule: Q01DX001 (ip), vehicle: gum acacia, higher T/C = larger tumour
  survivor count: 0 of 10 on day 21
T/C endpoint: median tumor weight (est.), dose: 54.0 mg/kg/injection, schedule: Q01DX001 (sc), vehicle: olive oil, sesame oil, peanut oil, higher T/C = larger tumour
  survivor count: 0 of 10 on day 14
T/C endpoint: median tumor weight (est.), dose: 60.0 mg/kg/injection, schedule: Q01DX001 (ip), vehicle: Klucel (hydroxypropylcellulose) (HPC), higher T/C = larger tumour
  survivor count: 2 of 10
T/C endpoint: median tumor weight (est.), dose: 100.0 mg/kg/injection, schedule: Q01DX001 (ip), vehicle: saline with Tween-80, higher T/C = larger tumour
  survivor count: 4 of 10 on day 21
T/C endpoint: median tumor weight (est.), dose: 125.0 mg/kg/injection, schedule: Q01DX001 (ip), vehicle: saline with Tween-80, higher T/C = larger tumour
  survivor count: 0 of 10 on day 21
T/C endpoint: median tumor weight (est.), dose: 150.0 mg/kg/injection, schedule: Q01DX001 (ip), vehicle: saline with Tween-80, higher T/C = larger tumour
  survivor count: 1 of 10 on day 21
